Literature values, collected in US11439614B2, “Fish egg extracts, omega-3 lipid-based compositions and uses thereof” (BIOFLASH INC., priority 2017, dated 2022).
At least one compound was matched to its structure with a doubt left.

System: ADHD symptoms

SMILES | Behavior of children with ADHD (360 mg DHA alone, children aged 6 to 12 years (Voigt et al, 2001)) | Attention deficit, hyperactivity, impulsivity, aggression, perception, memory (3.6 grams of DHA per week for 2 months, forty children with ADHD (Hirayama et al., 2004)) | Average score for cognitive disorders and behavior (high DHA supplementation, 41 children (8-12 years) with learning difficulties) | Share of oppositional children with improved total CTRS score (500 mg EPA, 9% of children on placebo (Gustafsson et al., 2010)) | Conner's (CTRS) inattention/cognition subscale (500 mg of EPA only, children 7 to 12 years with ADHD (Gustafsson et al., 2010))
CC/C=C\C/C=C\C/C=C\C/C=C\C/C=C\C/C=C\CCC(=O)O [DHA, docosahexaenoic acid] | failed to improve the behavior | no significant differences | decreased the average score for cognitive disorders and disorders of behavior in general | – | –
CC/C=C\C/C=C\C/C=C\C/C=C\C/C=C\CCCC(=O)O [EPA, eicosapentaenoic acid] | – | – | – | half | improved the score of dimensional subscale inattention/cognition
